Reference: patent publication US20140249147A1, “Substituted Bicyclic Aza-Heterocycles and Analogues as Sirtuin Modulators” (GlaxoSmithKline, LLC, priority 2011, published 2014)
At least one compound was matched to its structure with a doubt left.

Columns and labels:
[1] = target: T1, SIRT1 (Homo sapiens, UniProt Q96EB6); test: TAMRA based mass spectrometry assay of SIRT1 activation; type: biochemical; conditions: concentration giving 150% activation of SIRT1; TAMRA peptide substrate
T1 sequence (Q96EB6 1-747): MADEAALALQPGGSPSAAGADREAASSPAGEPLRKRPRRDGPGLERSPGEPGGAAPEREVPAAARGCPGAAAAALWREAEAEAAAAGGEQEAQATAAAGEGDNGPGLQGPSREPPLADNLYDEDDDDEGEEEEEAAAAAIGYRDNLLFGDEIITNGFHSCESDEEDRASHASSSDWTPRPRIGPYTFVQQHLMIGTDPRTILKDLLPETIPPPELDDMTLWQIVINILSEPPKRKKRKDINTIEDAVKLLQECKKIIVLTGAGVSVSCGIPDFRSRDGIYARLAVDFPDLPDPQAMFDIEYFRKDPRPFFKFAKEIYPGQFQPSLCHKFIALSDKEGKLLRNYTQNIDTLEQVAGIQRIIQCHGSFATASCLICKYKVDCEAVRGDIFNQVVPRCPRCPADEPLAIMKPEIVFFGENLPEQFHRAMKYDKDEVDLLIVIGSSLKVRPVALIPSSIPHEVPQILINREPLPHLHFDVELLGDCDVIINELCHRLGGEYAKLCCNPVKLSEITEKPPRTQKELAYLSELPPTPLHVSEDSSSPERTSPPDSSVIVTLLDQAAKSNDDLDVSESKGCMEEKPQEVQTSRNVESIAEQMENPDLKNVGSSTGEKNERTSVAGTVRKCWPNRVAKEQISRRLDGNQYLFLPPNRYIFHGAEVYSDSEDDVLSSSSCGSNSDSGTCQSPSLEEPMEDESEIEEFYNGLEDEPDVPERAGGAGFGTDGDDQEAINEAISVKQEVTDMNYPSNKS
Source text: (§1) Mass spectrometry based assays were used to identify modulators of SIRT1 activity. The TAMRA based assay utilized a peptide having 20 amino acid residues as follows: Ac-EE-K(biotin)-GQSTSSHSK(Ac)NleSTEG-K(5TMR)-EE-NH2 (SEQ ID NO: 1), wherein K(Ac) is an acetylated lysine residue and Nle is a norleucine. The peptide was labeled with the fluorophore 5TMR (excitation 540 nm/emission 580 nm) at the C-terminus. The sequence of the peptide substrate was based on p53 with several modifications. In addition, the methionine residue naturally present in the sequence was replaced with the norleucine because the methionine may be susceptible to oxidation during synthesis and purification. The Trp based assay utilized a peptide having an amino acid residues as follows: Ac—R—H—K—K(Ac)—W—NH2 (SEQ ID NO: 2).
The TAMRA based mass spectrometry assay was conducted as follows: 0.5 μM peptide substrate and 120 μM βNAD^+ was incubated with 10 nM SIRT1 for 25 minutes at 25° C. in a reaction buffer (50 mM Tris-acetate pH 8, 137 mM NaCl, 2.7 mM KCl, 1 mM MgCl2, 5 mM DTT, 0.05% BSA). The SIRT1 protein was obtained by cloning the SirT1 gene into a T7-promoter containing vector, which was then transformed and expressed in BL21(DE3) bacterial cells. Test compound was added at varying concentrations to this reaction mixture and the resulting reactions were monitored. After the 25 minute incubation with SIRT1, 10 μL of 10% formic acid was added to stop the reaction. The resulting reactions were sealed and frozen for later mass spec analysis. Determination of the amount of deacetylated substrate peptide formed (or, alternatively, the amount of O-acetyl-ADP-ribose (OAADPR) generated) by the sirtuin-mediated NAD-dependent deacetylation reaction allowed for the precise measurement of relative SIRT1 activity in the presence of varying concentrations of the test compound versus control reactions lacking the test compound. […]

[2] = target: T1, SIRT1; test: Trp mass spectrometry assay of SIRT1 activation; type: biochemical; conditions: concentration giving 150% activation of SIRT1; Trp peptide substrate
Source text: as §1
The Trp mass spectrometry assay was conducted as follows. […] Test compound was added at varying concentrations to this reaction mixture and the resulting reactions were monitored. […] The relative SIRT1 activity was then determined by measuring the amount of O-acetyl-ADP-ribose (OAADPR) formed (or, alternatively, the amount of deacetylated Trp peptide generated) by the NAD-dependent sirtuin deacetylation reaction in the presence of varying concentrations of the test compound versus control reactions lacking the test compound. […]

Row | TAMRA EC1.5 (μM) [1] | TYP EC1.5 (μM) [2] | SMILES
1 | C (EC1.5>25 μM) | C (EC1.5>25 μM) | O=C(Nc1cccc(C(F)(F)F)n1)c1ccc2nnc(-c3cccc(Cl)c3)n2n1 [Compound 6]
2 | B (EC1.5 1-25 μM) | – | O=C(Nc1cccc(C(F)(F)F)n1)c1ccc2nnc(-c3cccc(F)c3)n2n1 [Compound 7]
3 | B (EC1.5 1-25 μM) | C (EC1.5>25 μM) | Cc1cc(C)nc(NC(=O)c2ccc3nnc(-c4cccc(C(F)(F)F)c4)n3n2)c1 [Compound 8]
